From article PMC7819943, “Rice protein-binding microarrays: a tool to detect cis-acting elements near promoter regions in rice”
The other results are listed elsewhere or left out.

Biological target: T1, OsSMF1 (Oryza sativa, UniProt Q6ZLB0 1-436)
T1 sequence: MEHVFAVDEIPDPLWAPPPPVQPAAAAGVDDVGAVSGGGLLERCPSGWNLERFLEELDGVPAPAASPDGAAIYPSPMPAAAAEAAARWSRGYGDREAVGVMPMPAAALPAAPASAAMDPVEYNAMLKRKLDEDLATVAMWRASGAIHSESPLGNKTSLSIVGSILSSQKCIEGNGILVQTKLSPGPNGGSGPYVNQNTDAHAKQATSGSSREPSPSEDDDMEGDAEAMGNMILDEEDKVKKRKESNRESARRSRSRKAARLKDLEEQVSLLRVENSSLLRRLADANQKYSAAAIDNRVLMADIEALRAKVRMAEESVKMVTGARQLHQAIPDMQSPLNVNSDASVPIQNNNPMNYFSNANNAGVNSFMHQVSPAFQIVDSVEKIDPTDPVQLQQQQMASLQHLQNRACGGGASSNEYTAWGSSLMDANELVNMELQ
Test: protein-binding microarray (RPBM); PBS, 2% BSA, 51.3 ng/ul salmon testes DNA, 50 uM zinc acetate, 200 nM TF, 25 C, 1 h; high values mean tight binding
Settings: protein: recombinant; tags: N-terminal polyhistidine and DsRed monomer fusion (pET32a); chain copies: 2; label: CyDye5-dUTP incorporated in the synthesized complementary strand; 3' TTTTT single-stranded linker to array surface; dsDNA, one strand shown
Summary of the method: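 Ni–NTA purification followed expression in E. coli BL21-CodonPlus of transcription factors fused N-terminally to a polyhistidine tag and DsRed. At 200 nM in PBS with 2% BSA, salmon testes DNA and 50 µM zinc acetate, the protein was incubated for 1 h at 25 °C with a custom Agilent array that had been primer-extended with Cy5-dUTP and blocked with 2% BSA. After washing, the array was read on an Axon 4000B scanner. The binding signal is per-feature fluorescence intensity in arbitrary units.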

| Sequence | binding signal |
| --- | --- |
| CTAGATGCCATCAGATGTGTCAGCTTGGTGCCGCATATCACGGAGTCACCTAGTGCAG | 5540 fluorescence intensity (a.u.) |
| TATGGATGGGTTTTATTAATAGTCTACGTTTAATATTTATCGGAGTCACCTAGTGCAG | 4490 fluorescence intensity (a.u.) |
| TCATCAGGTAAGTCCACACTTGCCGCAGGTGAGTCAGTCGCGGAGTCACCTAGTGCAG | 5290 fluorescence intensity (a.u.) |
| GCCACGAGTTCCACGGCCGCGGCGTCGTCGTCGTCGTCGTCGGAGTCACCTAGTGCAG | 3170 fluorescence intensity (a.u.) |
| TATTGCTGAGGATAATGGTATAATGATGTATCCCATTCGACGGAGTCACCTAGTGCAG | 3760 fluorescence intensity (a.u.) |
| CGTCATGCTACTCACTGACGTCATCATCGTCTGGGCTGCCCGGAGTCACCTAGTGCAG | 19000 fluorescence intensity (a.u.) |
| GGACAGTTGAGTCATTCTACTGATGCTTTGGCCGGGGTGGCGGAGTCACCTAGTGCAG | 3340 fluorescence intensity (a.u.) |
| TCTCGGCCCAATAAGACCGAGTCAGCATGGGCTTCCATCTCGGAGTCACCTAGTGCAG | 8810 fluorescence intensity (a.u.) |
| GCAAGCGGCGGCGGTGTCACCATCCTCCCAGGCTACGGCTCGGAGTCACCTAGTGCAG | 3150 fluorescence intensity (a.u.) |
| CTCTCCCTCTCGCGTGTCCATTTCACGAATTCCTCGTCTCCGGAGTCACCTAGTGCAG | 4240 fluorescence intensity (a.u.) |
| GTCCAAAACTGCGGCCATCGCCGTCATCCGGTAAGCGGAACGGAGTCACCTAGTGCAG | 3580 fluorescence intensity (a.u.) |
| AGAGTTAGGGGTGCATAATTTACAGCCAGGCTCCTTGAGACGGAGTCACCTAGTGCAG | 5700 fluorescence intensity (a.u.) |
| TATATATATATATATATATATATATGAAAGTTTTATTCATCGGAGTCACCTAGTGCAG | 3450 fluorescence intensity (a.u.) |
| CATATGTCCACGGCTCCAATATAATATCACCAATGGCAATCGGAGTCACCTAGTGCAG | 36100 fluorescence intensity (a.u.) |
| GTCCGTCTTGTTTTCTCCTGCGTCACAATTGTCCCGTATTCGGAGTCACCTAGTGCAG | 4280 fluorescence intensity (a.u.) |
| TTAATAATACGCTTACTTTGACACCGACGTATGACATCATCGGAGTCACCTAGTGCAG | 6360 fluorescence intensity (a.u.) |
| ATGGGCCGAGATGGTACTGTTGTATGGAGATGGGCTGACTCGGAGTCACCTAGTGCAG | 4340 fluorescence intensity (a.u.) |
| TTTGCAAAATTTGCTGATGTGGCGCTCCTAACTTTCAACCCGGAGTCACCTAGTGCAG | 13500 fluorescence intensity (a.u.) |
| ACCGTCCTACATGGCTGTACAGCGTGGCTGCATATTTGCTCGGAGTCACCTAGTGCAG | 3530 fluorescence intensity (a.u.) |
| CTGCCGCTGACGGTGTTCTTCAGCCACCAAGTTCACGCCGCGGAGTCACCTAGTGCAG | 3430 fluorescence intensity (a.u.) |
| ATGCATATTATTGTGGTTGATTGATGAATTTTAAACTCAGCGGAGTCACCTAGTGCAG | 17800 fluorescence intensity (a.u.) |
| AACATGTATTTAACCGTGGTTTGGCTGACTAGCACCGAGACGGAGTCACCTAGTGCAG | 3300 fluorescence intensity (a.u.) |
| CATTATCCAACTCGAACAGCGCGAGCGTGGGACACGTCACCGGAGTCACCTAGTGCAG | 19600 fluorescence intensity (a.u.) |
| TGGGCACAGCCATGTTCATGCCAGCTAAGATTTCTCATCACGGAGTCACCTAGTGCAG | 3980 fluorescence intensity (a.u.) |
| AATTAATTTGTTCCTTTCGTCAGGGCTTGAGTCATGGAGTCGGAGTCACCTAGTGCAG | 3150 fluorescence intensity (a.u.) |
| TGTTTCTTTTCTTCAGACTAGTCACCTACGGTTTACTATTCGGAGTCACCTAGTGCAG | 3720 fluorescence intensity (a.u.) |
| TCCCATGCTAACTCAGCCACCACGTCGAACAAATCGGGGTCGGAGTCACCTAGTGCAG | 3380 fluorescence intensity (a.u.) |

Reformatted tab-delimited: part of the list above
Sequence	binding signal
ACCGTCCTACATGGCTGTACAGCGTGGCTGCATATTTGCTCGGAGTCACCTAGTGCAG	3530 fluorescence intensity (a.u.)
TGGGCACAGCCATGTTCATGCCAGCTAAGATTTCTCATCACGGAGTCACCTAGTGCAG	3980 fluorescence intensity (a.u.)

(listing goes on)

| Sequence | binding signal |
| --- | --- |
| ATCCCACCGCCCAGCGCCGCACCTCCTCTCCTCGTGCTCTCGGAGTCACCTAGTGCAG | 3220 fluorescence intensity (a.u.) |
| ATGACACCACTCTTGCTGACGTGGTCGAAAGATTCAGTTTCGGAGTCACCTAGTGCAG | 16900 fluorescence intensity (a.u.) |
| AAAATGGCCAAAGAGGGCAGTAATGCGACGTCACATTAGCCGGAGTCACCTAGTGCAG | 4490 fluorescence intensity (a.u.) |
| GAGGTGTCACTCGCGCGGTGCACCGCTGCACCATCACCGCCGGAGTCACCTAGTGCAG | 5580 fluorescence intensity (a.u.) |
| CCGCCAGGGCTCCATCGCTGGTGGTGTCACCTCGCCTAAACGGAGTCACCTAGTGCAG | 3520 fluorescence intensity (a.u.) |
| CGTCGTCTTCATCGACCTGACTCACCATTGACGAGTGCAGCGGAGTCACCTAGTGCAG | 9270 fluorescence intensity (a.u.) |
| CGCATGTACACGTACTCCTTTCCCCTCCACACCCTCCGAACGGAGTCACCTAGTGCAG | 5620 fluorescence intensity (a.u.) |
| ATTCCATATTTCCATTCCACACGTCTTGAGAGCTAATCTTCGGAGTCACCTAGTGCAG | 3400 fluorescence intensity (a.u.) |
| TGTTTCCGTAATATGTGGCAGATTTATTGCAACAGTGCGTCGGAGTCACCTAGTGCAG | 3400 fluorescence intensity (a.u.) |
| TCTCACCGCCCCACGCATTTCCTCCTCCTTGCCTCGCCTTCGGAGTCACCTAGTGCAG | 3190 fluorescence intensity (a.u.) |
| ATCATTGAGGTCAAACTTTATCCACCTCATCATTATTCAGCGGAGTCACCTAGTGCAG | 4390 fluorescence intensity (a.u.) |
| ATGGCGCTGTCCACATGCGCCACCGTGGCACGCGCCGCGCCGGAGTCACCTAGTGCAG | 8760 fluorescence intensity (a.u.) |
| AACCACCAGAAACGCACACGTCGCGCACGCCTGAGCAGACCGGAGTCACCTAGTGCAG | 3250 fluorescence intensity (a.u.) |
| CACCGCCACGTGGGCCCCACCTGTCATCCACACGGACCTGCGGAGTCACCTAGTGCAG | 18000 fluorescence intensity (a.u.) |
| CCAGCTCCCCATCCCAGATGAGGTGGCAACAACACTGCTTCGGAGTCACCTAGTGCAG | 8280 fluorescence intensity (a.u.) |
| CGACATGTTGAGATGCGGGTTGCGTCTGCATGGTGCGTCGCGGAGTCACCTAGTGCAG | 3830 fluorescence intensity (a.u.) |
| AATTATAAAATCCAGAAAATAAACTAAGAACTGAAAACTACGGAGTCACCTAGTGCAG | 5060 fluorescence intensity (a.u.) |
| GTCGGGGCGCGTGCGCAGCAGCGCGAAGCGGAGCGGGAGACGGAGTCACCTAGTGCAG | 4120 fluorescence intensity (a.u.) |
| TCCTCCTCTCACCACTTGGAAGCATCCACCTCATTACATCCGGAGTCACCTAGTGCAG | 5790 fluorescence intensity (a.u.) |
| TCCGTCCATGATAGTAGATGGTAGTGACAGTGGACATGTCCGGAGTCACCTAGTGCAG | 3320 fluorescence intensity (a.u.) |
| ATATAATAGCTAATCAAACACTAGTCCGAAGACGTAGTATCGGAGTCACCTAGTGCAG | 18800 fluorescence intensity (a.u.) |
| ATACATAGCCATATATAAAATTAATGTGATAACATATTCTCGGAGTCACCTAGTGCAG | 3660 fluorescence intensity (a.u.) |
| CCTCTGCAATCGGTCCAACTGCTGACTACTCCCTACATCTCGGAGTCACCTAGTGCAG | 4090 fluorescence intensity (a.u.) |
| CACAGTAACCCCACTGCCACACATCACAGATTTACATATCCGGAGTCACCTAGTGCAG | 3170 fluorescence intensity (a.u.) |
| CTCTCTAGCTATAGCTATAGCTTACCTCATCACCGTCGTCCGGAGTCACCTAGTGCAG | 3540 fluorescence intensity (a.u.) |
| CAACGATGTAGCTCGCTGACCTTTAAATAGGCGGTTGAGGCGGAGTCACCTAGTGCAG | 5780 fluorescence intensity (a.u.) |
| TACGTTTCTCAGTGTATCAATCTGTGGATCATGCTCGCAGCGGAGTCACCTAGTGCAG | 3860 fluorescence intensity (a.u.) |
